From PMC4654474
These are yes or no findings as the source states them, for the method shown. Binding seen in cells or lysates may run through a third protein. Some entries that bind do so weakly or less than the wild type.

Target: RabGEF1 (rat, endogenous in PC12 cells) (rat (endogenous in PC12))
Test: co-IP; PC12 cell lysates (0.5% Triton-X in PSB), NGF for 0, 0.5 or 1.0 hour; immunoprecipitation with anti-RabGEF1 or anti-NR2B antibody, Protein A/G agarose, Western blot; rabbit IgG as negative control

Binder	binding
SynGAP (rat, endogenous in PC12 cells) (protein, UniProt Q9QUH6 1-1308) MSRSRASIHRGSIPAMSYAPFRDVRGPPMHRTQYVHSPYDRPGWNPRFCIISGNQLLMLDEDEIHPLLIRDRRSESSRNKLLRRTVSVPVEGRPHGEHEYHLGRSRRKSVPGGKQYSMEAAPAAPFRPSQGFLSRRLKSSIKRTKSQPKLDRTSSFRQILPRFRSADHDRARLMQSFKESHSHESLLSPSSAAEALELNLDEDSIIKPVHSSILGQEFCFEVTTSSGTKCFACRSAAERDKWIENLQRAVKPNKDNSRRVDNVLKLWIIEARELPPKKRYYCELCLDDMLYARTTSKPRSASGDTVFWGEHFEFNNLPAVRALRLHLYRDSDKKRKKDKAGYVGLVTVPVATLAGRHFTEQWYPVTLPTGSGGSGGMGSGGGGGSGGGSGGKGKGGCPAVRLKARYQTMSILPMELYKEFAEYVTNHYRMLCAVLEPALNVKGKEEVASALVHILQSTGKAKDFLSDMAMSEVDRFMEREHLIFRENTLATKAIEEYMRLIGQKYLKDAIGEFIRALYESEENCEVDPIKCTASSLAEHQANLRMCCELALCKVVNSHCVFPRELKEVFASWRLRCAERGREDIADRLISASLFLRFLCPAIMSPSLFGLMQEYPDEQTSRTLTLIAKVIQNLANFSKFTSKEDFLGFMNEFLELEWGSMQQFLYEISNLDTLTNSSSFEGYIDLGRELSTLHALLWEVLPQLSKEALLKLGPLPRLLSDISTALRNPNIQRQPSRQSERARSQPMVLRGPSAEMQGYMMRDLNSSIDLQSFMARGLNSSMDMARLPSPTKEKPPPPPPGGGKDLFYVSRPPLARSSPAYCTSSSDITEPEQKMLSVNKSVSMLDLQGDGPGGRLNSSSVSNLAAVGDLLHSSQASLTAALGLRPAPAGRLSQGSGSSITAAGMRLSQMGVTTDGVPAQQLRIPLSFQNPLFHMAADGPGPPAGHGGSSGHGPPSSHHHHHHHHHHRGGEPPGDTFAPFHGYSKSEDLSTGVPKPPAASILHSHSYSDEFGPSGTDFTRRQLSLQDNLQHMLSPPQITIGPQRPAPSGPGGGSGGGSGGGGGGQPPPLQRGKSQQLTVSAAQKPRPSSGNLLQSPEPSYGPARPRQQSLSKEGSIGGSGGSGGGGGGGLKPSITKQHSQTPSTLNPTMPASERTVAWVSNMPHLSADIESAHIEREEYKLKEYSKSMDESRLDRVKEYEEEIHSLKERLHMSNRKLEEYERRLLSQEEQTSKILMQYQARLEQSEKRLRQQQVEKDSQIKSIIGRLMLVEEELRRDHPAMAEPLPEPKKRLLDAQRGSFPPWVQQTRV	binds
Rabaptin-5 (rat, endogenous in PC12 cells) (protein, UniProt O35550 1-862) MAQPGPAPQPDVSLQQRVAELEKINAEFLRAQQQLEQEFNQKRAKFKELYLAKEEDLKRQNAVLQAAQDDLGHLRTQLWEAQAEMENIKAIATVSENTKQEAIDEVKRQWREEVASLQAVMKETVRDYEHQFHLRLEQERAQWAQYRESADREIADLRRRLSEGQEEENLENEMKKAQEDAEKLRSVVMPMEKEIAALKDKLTEAEDKIKELEASKVKELNHYLEAEKSCRTDLEMYVAVLNTQKSVLQEDAEKLRKELHEVCHLLEQERQQHNQLKHTWQKANDQFLESQRLLMRDMQRMEIVLTSEQLRQVEELKKKDQEEDEQQRINKGKDNKKIDTEEEVKIPVVCALTQEESSTPLSNEEEHLDSTHGSVHSLDADLLLPSGDPFSKSDNDMFKEGLRRAQSTDSLGTSSSLQSKALGYNYKAKSAGNLDESDFGPLVGADSVSENFDTVSLGSLQMPSGFMLTKDQERAIKAMTPEQEETASLLSSVTQGMESAYVSPSGYRLVSETEWNLLQKEVHNAGNKLGRRCDMCSNYEKQLQGIQIQEAETRDQVKKLQLMLRQANDQLEKTMKEKQELEDFLRQSAEDSSHQISALVLRAQASEVLLEELQQSFSQAKRDVQEQMAVLMQSREQVSEELVRLQKDNDSLQGKHSLHVSLQLAEDFILPDTVQVLRELVLKYRENIVHVRTAADHMEEKLKAEILFLKEQIQAEQCLKENLEETLQLEIENCKEEIASISSLKAELERIKVEKGQLESTLREKSQQLESLQEIKVNLEEQLKKETAAKATVEQLMFEEKNKAQRLQTELDVSEQVQRDFVKLSQTLQVQLERIRQADSLERIRAILNDTKLTDINQLPET	binds
